Assay results as given in patent US20230248835A1, “COMPOUNDS, COMPOSITIONS, AND METHODS FOR THE TREATMENT OF FIBROTIC DISEASES AND CANCER” (Purdue Research Foundation, priority 2020, published 2023).
Some entries share one result that the patent states for a list of compounds.

Test: Disulfide cleavage study of folate-TLR7 conjugates with DTT (LCMS)
Format: physicochemical
Conditions: dithiothreitol (DTT) 40 equiv in PBS, LCMS at 0, 7, 30 and 50 minutes

## CCCCc1nc2c(N)nc3ccccc3c2n1CC(C)(C)COC(=O)OCCSSC[C@H](NC(=O)CCOCCOCCOCCNC(=O)CC[C@H](NC(=O)c1ccc(NCc2cnc3nc(N)[nH]c(=O)c3n2)cc1)C(=O)O)C(=O)O [Compound 5]
  time to cleavage and release of the free drug: ≤ 30 min
